In all, about 300,000 compounds went through this assay and about 5,400 (1.8%) were called active. Inconclusive means that the source gave no clear call. Such entries were picked first, then a sample of the others. Calls follow the shape of the full dose curve; tested in HEK293 cells. Potencies beside an inconclusive call are fits to weak or partial responses and may not hold up.
Assay: qHTS for inhibitors of binding or entry into cells for Marburg Virus
Conditions: Marburg virus pseudotyped entry inhibition, cell reporter; activity change, negative = inhibition: at 37.8 µM (top of the series) unless noted
% is scaled to controls: 0 for no effect and ±100 for the full control effect; potency is read from the fitted curve at half-maximal effect.

SMILES | Potency | activity change, negative = inhibition
CC(=O)Nc1ccc(NC(=O)C(C)OC(=O)C2CCN(S(=O)(=O)c3ccccc3C(F)(F)F)CC2)cc1 (centres undefined) | inactive | 
COc1cc(-c2nc(-c3ccc(NC(=O)c4ccc(Br)o4)cc3)no2)cc(OC)c1OC | inconclusive: 18.3 µM [inhibitor, single point] | 
CCCCN(C(=O)CSCC(=O)Nc1cccc(C)c1)c1c(N)n(Cc2ccccc2)c(=O)[nH]c1=O | inconclusive: 3.55 µM [activator, single point] | 
O=C(Nc1ccccc1-c1ccccc1)C1CCC1 | inactive | 
O=S(=O)(c1cccc(-c2nnc(SCc3nc4ccccc4s3)o2)c1)N1CCOCC1 | inactive | 
CSCCC(NS(=O)(=O)c1ccc(Cl)cc1)C(=O)OCC(=O)c1ccc(F)cc1 (centres undefined) | inconclusive: 14.1 µM [activator, partial curve, poor fit] | 
CN(C)S(=O)(=O)c1cccc(C(=O)Nc2ccccc2N2CCCCC2)c1 | inconclusive: 18.3 µM [inhibitor, single point] | 
Cc1ccc(C)c2[nH]c(=O)c(CN(CC3CCCO3)C(=S)NCc3ccco3)cc12 (centres undefined) | inconclusive: 12.6 µM [inhibitor, partial curve, poor fit] | 
O=C1c2cccnc2-c2ncccc21 | inactive | 
O=C(Cc1cccc2ccccc12)NN1C(=O)CSC1=S | inconclusive: 35.5 µM [activator, single point] | 
Cc1ccc(-c2nc3ccccc3[nH]2)cc1NC(=O)/C=C/c1ccco1 | inconclusive: 29.1 µM [inhibitor, single point] | 
CCOC(=O)N1CCN(C(=O)C2CCCN(S(=O)(=O)c3c(C)cc(C)cc3C)C2)CC1 (centres undefined) | inactive | 
CN=c1sc2ccccc2n1C[C@@H](O)COc1ccccc1 | inconclusive: 17.8 µM [inhibitor, single point] | 
C=CCn1c(-c2cccc(OC)c2OC)n[nH]c1=S | inconclusive: 35.5 µM [inhibitor, single point] | 
O=C(CCN1CCOCC1)NNC(=O)/C(=C/c1ccccc1)NC(=O)c1ccccc1 |  | inconclusive: 26.1% [activator] [at 46.1 µM]
COc1ccc(-c2cc(C(=O)NCCN3CCOCC3)no2)cc1OC | inactive | 
CCOc1ccc(OCCC(=O)Nc2cccc(S(=O)(=O)N3CCCC3)c2)cc1 | inconclusive: 17.8 µM [inhibitor, single point] | 
COc1ccc2oc(=O)c(C(=O)N3CCN(c4ccccc4C)CC3)cc2c1 | inconclusive: 6.51 µM [activator, single point] | 
CC(C)[C@@H](OCc1ccccc1)[C@H](C)/C=N\OC[C@@H](O)COCc1ccco1 | inconclusive: 0.0299 µM [activator, full curve, poor fit] | 
CC1CCC(NC(=O)c2ccc(NC(=O)CC3SC(N4CCCC4)=NC3=O)cc2)CC1 (centres undefined) | inconclusive: 1 µM [activator, partial curve, poor fit] | 
CC1(C)Cc2cccc(C(=O)NC3CCN(Cc4ccccc4)CC3)c2O1 | inconclusive: 22.4 µM [inhibitor, partial curve, poor fit] | 
CCOc1ccc(NS(=O)(=O)c2ccc(C(=O)NCc3cccnc3)cc2)cc1 | inactive | 
CC12CCC(C(=O)N(CSC(=S)N/N=C\c3ccccc3O)C1=O)C2(C)C (centres undefined) | inactive | 

SMILES | Potency | activity change, negative = inhibition
Cc1ccc(-n2c(C)cc(/C=N/Nc3ccc([N+](=O)[O-])cn3)c2C)cc1 | inactive | 
CCOc1ccc(S(=O)(=O)N(CC(=O)N/N=C/c2cccs2)c2ccc(C)cc2)cc1 | inconclusive: 29.1 µM [inhibitor, single point] | 
Cc1cccc(Nc2nc(N)c([N+](=O)[O-])c(N3CC(C)CC(C)C3)n2)c1 (centres undefined) | inconclusive: 18.4 µM [inhibitor, single point] | 
COc1ccc(NC(=O)c2cc(-c3cc(OC)c(OC)c(OC)c3)nc3ccccc23)c(OC)c1 | inconclusive: 5.62 µM [inhibitor, single point] | 
Cc1ccc(C)c(NS(=O)(=O)c2ccc(NC(=O)c3ccco3)cc2)c1 | inactive | 
O=c1c2ccccc2nnn1CSc1nnc(COc2ccc(Cl)cc2)n1Cc1ccco1 | inactive | 
O=C1C(I)=CC(=C(c2cc(I)c(O)c(I)c2)c2ccccc2C(=O)O)C=C1I | inconclusive: 0.0397 µM [inhibitor, full curve, poor fit] | 
COc1ccc(/C(C)=N/Nc2nncc3ccccc23)cc1 | inconclusive: 8.91 µM [inhibitor, partial curve, poor fit] | 
COc1ccc(-c2noc(CCCC(=O)Nc3ccc(C(N)=O)cc3)n2)cc1OC | inactive | 
CCNC(=O)NC(=O)COc1ccccc1C#N | inactive | 
O=C(CCNC(=O)c1ccc(Cl)cc1)Nc1ccccc1N1CCCC1 | inconclusive: 2.51 µM [activator, full curve, poor fit] | 
COc1ccccc1/C=N/NC(=O)c1ccc(=O)n(C)c1 | inconclusive: 5.62 µM [activator, single point] | 
COc1cccc(C(=O)OCCN2C(=O)c3ccccc3C2=O)c1OC | inactive | 
CCCCn1cnc2c(SCc3ccccc3F)nc(N)nc21 | inconclusive: 35.5 µM [activator, single point] | 
Oc1[nH]c(N=C2N=c3ccccc3=N2)c2ccccc12 | inconclusive: 7.08 µM [inhibitor, full curve, poor fit] | 
Cc1ccc(-c2cc(C(=O)Nc3c(C(=O)c4ccccc4)oc4ccccc34)no2)cc1F | inconclusive: 3.55 µM [activator, single point] | 
CC(C)CN1C(=O)c2ccc(C(=O)Nc3ccncc3)cc2C1=O | inactive | 
COc1ccc(C2C(C#N)=C(N)Oc3c2sc2nc(C)cc(C)c32)cc1 (centres undefined) | inconclusive: 35.5 µM [inhibitor, single point] | 
CC1CCCN(c2ccc(C(=O)NCC3CCCO3)cn2)C1 (centres undefined) | inactive | 
O=C(c1ccco1)N1CCN(S(=O)(=O)c2ccc(C3CCCCC3)cc2)CC1 | inconclusive: 4.47 µM [inhibitor, full curve] | 
CNC(=S)N(CCc1c(C)[nH]c2ccccc12)Cc1cccnc1 | inactive | 
O=C(c1ccc2nc(Cc3cccc(Cl)c3)oc2c1)N1CCOCC1 | inactive | 
O=C(CCS(=O)(=O)Cc1ccccc1)Nc1nncs1 | inconclusive: 4.47 µM [inhibitor, partial curve, poor fit] | 

SMILES | Potency | activity change, negative = inhibition
CCc1cccc(NS(=O)(=O)c2c(C)n[nH]c2C)c1 | inactive | 
CCOc1ccc(C(CCc2ccccc2)NC(=O)c2ccccc2OC)cc1OCC (centres undefined) | inconclusive: 0.651 µM [inhibitor, full curve, poor fit] | 
COc1ccc(C2=NN(C(=O)c3ccccc3)C(c3ccc(OC)c(OC)c3)C2)c(O)c1 (centres undefined) | inactive | 
CC(=O)OCC(=O)[C@@]12OC(C)(C)O[C@@H]1C[C@H]1[C@@H]3C[C@H](F)C4=CC(=O)C=C[C@]4(C)[C@@]3(F)[C@@H](O)C[C@@]12C | inconclusive: 29.1 µM [activator, single point] | 
CCC(C)NC(=O)c1sc2nc(C)c(C(=O)Nc3ccc(C)cc3C)c(-c3ccc(Cl)cc3)c2c1N (centres undefined) | inconclusive: 3.55 µM [inhibitor, partial curve, poor fit] | 
CCOC(=O)N1CCN(C(=O)CN(c2ccccc2OC)S(=O)(=O)c2ccc(C)cc2)CC1 | inactive | 
Cc1ccc(/C=C/C(=O)OCC(=O)N2CC(=O)Nc3ccccc32)o1 | inactive | 
O=C(Nc1nn[nH]n1)c1cccc(Oc2ccccc2)c1 | inactive | 
COCCn1c(SCC(=O)Nc2ccc(NC(=O)c3ccco3)c(OC)c2)nc2ccccc2c1=O | inconclusive: 13 µM [inhibitor, partial curve, poor fit] | 
O=C(CC1NCCc2ccccc21)Nc1ccccc1Cl (centres undefined) | inconclusive: 1.58 µM [activator, partial curve, poor fit] | 
Cc1ccccc1N1CC(O)(c2ccccc2)[N+]2=C1SCC2 (centres undefined) | inconclusive: 35.5 µM [inhibitor, single point] | 
Cc1ccc(C)c(S(=O)(=O)N2CCC3(CC2)OCCN3S(=O)(=O)c2cccs2)c1 | inactive | 
Cc1ccc(C)c(N(C(=O)CS(=O)CC(=O)Nc2ccc3c(c2)OCO3)C(C)C(=O)NC2CCCC2)c1 (centres undefined) | inconclusive: 11.6 µM [inhibitor, partial curve, poor fit] | 
CCCCc1cc2c(c(NC(=O)CC)n1)c(=O)oc1ccccc12 | inactive | 
CCCCSc1nc(NCc2ccco2)c2c3c(sc2n1)COC(C)(C)C3 | inactive | 
Cc1ccccc1-c1nnc(C2CCN(S(=O)(=O)c3ccc(Cl)cc3)CC2)o1 | inactive | 
CCOc1ccc2c(c1)c1nnc(SCC(=O)N3CCCCC3C)nc1n2C (centres undefined) | inactive | 
CCOC(=O)c1ccc(N2C(=O)c3[nH]nc(-c4ccc(OCC)cc4)c3C2c2ccc(OC)cc2OC)cc1 (centres undefined) | inconclusive: 20 µM [inhibitor, partial curve, poor fit] | 
CC(=O)c1ccc(S(=O)(=O)Nc2ccccc2C(=O)NC2CC2)cc1 | inconclusive: 1.78 µM [activator, partial curve] | 
COc1ccccc1CNC1CCN(Cc2ccccc2)CC1 | inconclusive: 35.5 µM [inhibitor, single point] | 
CCOc1cccc(NC(=O)Cc2cccs2)c1 | inconclusive: 17.8 µM [activator, single point] | 
Cc1ccc(NC(=O)C2CCCN2C(=O)Oc2ccccc2)cc1C (centres undefined) | inconclusive: 15.8 µM [activator, single point] | 
Cc1sc2nc(SCC(=O)Nc3ccc(Cl)c(C(=O)O)c3)[nH]c(=O)c2c1C | active: 12.6 µM | 

Ordered by formula weight (low to high): 20 of the compounds above
SMILES | Potency | activity change, negative = inhibition
O=C1c2cccnc2-c2ncccc21 | inactive | 
CCOc1cccc(NC(=O)Cc2cccs2)c1 | inconclusive: 17.8 µM [activator, single point] | 
Oc1[nH]c(N=C2N=c3ccccc3=N2)c2ccccc12 | inconclusive: 7.08 µM [inhibitor, full curve, poor fit] | 
O=C(Nc1nn[nH]n1)c1cccc(Oc2ccccc2)c1 | inactive | 
COc1ccc(/C(C)=N/Nc2nncc3ccccc23)cc1 | inconclusive: 8.91 µM [inhibitor, partial curve, poor fit] | 
O=C(Cc1cccc2ccccc12)NN1C(=O)CSC1=S | inconclusive: 35.5 µM [activator, single point] | 
CCCCn1cnc2c(SCc3ccccc3F)nc(N)nc21 | inconclusive: 35.5 µM [activator, single point] | 
Cc1ccc(NC(=O)C2CCCN2C(=O)Oc2ccccc2)cc1C (centres undefined) | inconclusive: 15.8 µM [activator, single point] | 
Cc1ccc(-c2nc3ccccc3[nH]2)cc1NC(=O)/C=C/c1ccco1 | inconclusive: 29.1 µM [inhibitor, single point] | 
COc1ccc(C2C(C#N)=C(N)Oc3c2sc2nc(C)cc(C)c32)cc1 (centres undefined) | inconclusive: 35.5 µM [inhibitor, single point] | 
O=C(CCNC(=O)c1ccc(Cl)cc1)Nc1ccccc1N1CCCC1 | inconclusive: 2.51 µM [activator, full curve, poor fit] | 
CN(C)S(=O)(=O)c1cccc(C(=O)Nc2ccccc2N2CCCCC2)c1 | inconclusive: 18.3 µM [inhibitor, single point] | 
CC(C)[C@@H](OCc1ccccc1)[C@H](C)/C=N\OC[C@@H](O)COCc1ccco1 | inconclusive: 0.0299 µM [activator, full curve, poor fit] | 
CCOc1ccc(C(CCc2ccccc2)NC(=O)c2ccccc2OC)cc1OCC (centres undefined) | inconclusive: 0.651 µM [inhibitor, full curve, poor fit] | 
CC1CCC(NC(=O)c2ccc(NC(=O)CC3SC(N4CCCC4)=NC3=O)cc2)CC1 (centres undefined) | inconclusive: 1 µM [activator, partial curve, poor fit] | 
CCOC(=O)N1CCN(C(=O)C2CCCN(S(=O)(=O)c3c(C)cc(C)cc3C)C2)CC1 (centres undefined) | inactive | 
Cc1ccc(C)c(S(=O)(=O)N2CCC3(CC2)OCCN3S(=O)(=O)c2cccs2)c1 | inactive | 
CCC(C)NC(=O)c1sc2nc(C)c(C(=O)Nc3ccc(C)cc3C)c(-c3ccc(Cl)cc3)c2c1N (centres undefined) | inconclusive: 3.55 µM [inhibitor, partial curve, poor fit] | 
CCOC(=O)c1ccc(N2C(=O)c3[nH]nc(-c4ccc(OCC)cc4)c3C2c2ccc(OC)cc2OC)cc1 (centres undefined) | inconclusive: 20 µM [inhibitor, partial curve, poor fit] | 
O=C1C(I)=CC(=C(c2cc(I)c(O)c(I)c2)c2ccccc2C(=O)O)C=C1I | inconclusive: 0.0397 µM [inhibitor, full curve, poor fit] | 

Reference: PubChem BioAssay AID540276 (National Center for Advancing Translational Sciences (NCATS), 2011)
